The values that follow come from paper doi:10.1101/2023.02.03.527076.

For this test, the target named is T1, TAP-AtSYP32 (9 x myc-AtSYP32) fusion protein (Arabidopsis thaliana) (UniProt Q9LK09).
T1 sequence: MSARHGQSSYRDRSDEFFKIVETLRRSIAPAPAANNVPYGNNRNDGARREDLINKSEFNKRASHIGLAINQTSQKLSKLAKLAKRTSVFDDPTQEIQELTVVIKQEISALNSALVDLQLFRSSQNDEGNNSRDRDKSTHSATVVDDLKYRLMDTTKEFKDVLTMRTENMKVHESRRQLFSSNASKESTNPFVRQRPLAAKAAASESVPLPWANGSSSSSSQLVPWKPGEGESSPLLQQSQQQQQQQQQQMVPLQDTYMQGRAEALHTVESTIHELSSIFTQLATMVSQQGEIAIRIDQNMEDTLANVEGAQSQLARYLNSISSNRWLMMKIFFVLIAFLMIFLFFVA
In words: affinity purification with mass spectrometry.

No constants are given. Whether binding was seen depends on the method and setting. In cells and extracts the contact can be indirect. Here binding means that the protein was enriched with, or labelled near, the bait; the list need not be complete. Tags and fused reporters may be left off the sequences shown.

B1: RABA4D (endogenous) (protein, UniProt Q9LH50 1-222)
chain: MSNLYGDYNQKIDYVFKVVLIGDSAVGKTQLLARFARNEFSVDSKATIGVEFQTKTLVIDNKTVKAQIWDTAGQERYRAVTSAYYRGAVGAMLVYDMTKRQSFDHMAKWLEELRGHADKNIVIMLIGNKCDLGSLRAVPTEDAQEFAQRENLFFMETSALEATNVETAFLTILTEIYRIISKKSLTADDDDADGNSSLLKGTRIIIPSEQESGKRGGCCGKS
As to B1, the binding entry was “binds”.

B2: DRP2B (endogenous) (protein, UniProt Q9LQ55 1-920)
chain: MEAIDELSQLSDSMRQAASLLADEDPDETSSSRRPATSLNVVALGNVGAGKSAVLNSLIGHPVLPTGENGATRAPIIIDLSREESLSSKAIILQIDNKNQQVSASALRHSLQDRLSKGASGRGRDEIYLKLRTSTAPPLKLIDLPGLDQRIVDDSMIGEHAQHNDAILLVVVPASQASEISSSRALKIAKEYDPESTRTVGIISKIDQAAENPKSLAAVQALLSNQGPPKTTDIPWVALIGQSVSIASAQSGGSENSLETAWRAESESLKSILTGAPQSKLGRIALVDTLASQIRSRMKLRLPNILTGLQGKSQIVQDELARLGEQLVSSAEGTRAIALELCREFEDKFLLHLAGGEGSGWKVVASFEGNFPNRIKKLPLDRHFDLNNVKRIVLEADGYQPYLISPEKGLRSLIKTVLELAKDPARLCVDEVHRVLVDIVSASANATPGLGRYPPFKREVVAIASAALDGFKNEAKKMVVALVDMERAFVPPQHFIRLVQRRMERQRREEELKGRSSKKGQDAEQSLLNRATSPQPDGPSSTGGSLKSLRDKLMPQDKDKDKEKETPEVSGLKTAGPEGEITAGYLMKKSAKTNGWSRRWFVLNEKTGKLGYTKKQEERNFRGTVTLEECSIEEISDDEGEKSKSSKDKKSNGPDSKGPGLVFKITCRVPYKTVLKAHNALVLKAESMVDKNEWINKLQKVIQARGGQVGSASMRQSLSEGSLDKMVRKPVDPEEELRWMSQEVRGYVEAVLNSLAANVPKAVVLCQVEKSKEDMLNQLYSSISAIGNERIESLIQEDQNVKRRRDRYQKQSSLLSKLTRQLSIHDNRAAAASSWSDNSGTESSPRTNGGSSGEDWMNAFNAAASGPDSLKRYGSGGHSRRYSDPAQNGEDSSGSGGSSRRTTPNRLPPAPPQSGSSYRY
In the case of B2, the binding entry is listed as “binds”.
